Patent US6890716
No constants are given. Whether binding was seen depends on the method and setting. Some entries that bind do so weakly or less than the wild type. For some assays here: Where a sequence is shown, tags or fusion partners need not be part of it.

Protein sequences, listed by entry. Tags and fused reporters are not part of them. Lines headed by an entry give the natural chain unless they say otherwise; changes in a name come on top.
UniProt Q07817: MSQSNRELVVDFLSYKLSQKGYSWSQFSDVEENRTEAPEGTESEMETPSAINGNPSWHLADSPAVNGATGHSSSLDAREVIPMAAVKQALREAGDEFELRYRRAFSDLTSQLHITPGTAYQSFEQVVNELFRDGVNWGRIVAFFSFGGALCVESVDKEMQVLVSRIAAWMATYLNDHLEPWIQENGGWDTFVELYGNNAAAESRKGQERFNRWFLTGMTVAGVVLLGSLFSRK
UniProt P10415: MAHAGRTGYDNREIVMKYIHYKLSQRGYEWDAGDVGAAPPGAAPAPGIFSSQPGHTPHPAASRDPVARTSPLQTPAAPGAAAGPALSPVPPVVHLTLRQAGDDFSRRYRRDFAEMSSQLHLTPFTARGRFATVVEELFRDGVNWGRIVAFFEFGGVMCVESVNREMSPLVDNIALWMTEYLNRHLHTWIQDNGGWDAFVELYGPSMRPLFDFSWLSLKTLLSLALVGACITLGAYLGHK
UniProt Q9NYF8: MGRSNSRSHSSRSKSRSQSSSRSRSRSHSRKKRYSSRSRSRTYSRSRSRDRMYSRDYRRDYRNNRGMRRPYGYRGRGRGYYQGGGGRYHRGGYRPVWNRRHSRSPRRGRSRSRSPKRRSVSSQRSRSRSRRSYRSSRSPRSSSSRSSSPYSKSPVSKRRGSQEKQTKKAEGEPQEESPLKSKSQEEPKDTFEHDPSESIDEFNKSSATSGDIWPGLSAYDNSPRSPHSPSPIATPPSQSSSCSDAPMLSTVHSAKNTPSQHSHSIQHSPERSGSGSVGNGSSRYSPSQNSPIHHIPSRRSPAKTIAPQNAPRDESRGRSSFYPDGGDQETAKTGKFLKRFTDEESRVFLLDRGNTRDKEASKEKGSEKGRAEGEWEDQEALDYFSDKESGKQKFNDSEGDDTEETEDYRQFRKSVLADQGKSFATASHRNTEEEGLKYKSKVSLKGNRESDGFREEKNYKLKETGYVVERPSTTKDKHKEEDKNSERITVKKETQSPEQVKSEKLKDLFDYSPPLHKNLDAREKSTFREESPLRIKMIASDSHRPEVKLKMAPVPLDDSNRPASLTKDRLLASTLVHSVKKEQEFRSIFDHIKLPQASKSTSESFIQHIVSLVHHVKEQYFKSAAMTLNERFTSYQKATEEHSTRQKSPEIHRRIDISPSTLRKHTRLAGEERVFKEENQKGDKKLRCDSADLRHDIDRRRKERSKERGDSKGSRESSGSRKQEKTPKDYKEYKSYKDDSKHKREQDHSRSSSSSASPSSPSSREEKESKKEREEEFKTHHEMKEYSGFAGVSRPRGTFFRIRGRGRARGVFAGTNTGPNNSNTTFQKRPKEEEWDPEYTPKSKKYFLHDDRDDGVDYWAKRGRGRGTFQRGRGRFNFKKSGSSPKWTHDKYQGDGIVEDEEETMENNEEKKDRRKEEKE
UniProt Q07812: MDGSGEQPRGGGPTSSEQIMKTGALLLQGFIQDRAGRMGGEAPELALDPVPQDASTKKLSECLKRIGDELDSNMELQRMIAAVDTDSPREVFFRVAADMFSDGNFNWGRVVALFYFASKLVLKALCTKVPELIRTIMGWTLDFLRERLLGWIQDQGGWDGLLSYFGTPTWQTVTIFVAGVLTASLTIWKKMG

Experiments:
[1] = target: Bcl-xL two-hybrid fusion (pGBT8-Bcl-xL) (UniProt P04386); test: yeast two-hybrid
[2] = target: T1, V5/His-E1B 19K (C-terminally V5/His tagged E1B 19K) (adenovirus) (UniProt P03246); test: in vitro translated proteins, immunoprecipitation with anti-Myc antibody
T1 sequence: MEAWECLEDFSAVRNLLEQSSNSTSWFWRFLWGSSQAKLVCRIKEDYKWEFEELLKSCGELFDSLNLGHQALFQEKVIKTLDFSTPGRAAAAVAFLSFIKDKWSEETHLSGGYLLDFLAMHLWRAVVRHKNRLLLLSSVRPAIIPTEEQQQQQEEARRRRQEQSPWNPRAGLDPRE

[3] = target: Flag-Bcl-xL (pcDNA3-Flag-Bcl-xL) (UniProt Q07817); test: as above
[4] = target: Bcl-2 (pcDNA3-Bcl-2) (human) (UniProt P10415); test: as above
[5] = target: T1, V5/His-E1B 19K (C-terminally V5/His tagged E1B 19K) (adenovirus); test: in vitro translated proteins, immunoprecipitation with anti-Myc antibody, figure legend
[6] = target: Flag-Bcl-xL (pcDNA3-Flag-Bcl-xL) (UniProt Q07817); test: as above
[7] = target: Bcl-2 (pcDNA3-Bcl-2) (human) (UniProt P10415); test: as above

Row | Substance | binding [1] | binding [2] | binding [3] | binding [4] | binding [5] | binding [6] | binding [7]
1 | BtfS in the yeast two-hybrid assay (pGAD-GH-BtfS) (from UniProt Q9NYF8 1-920) | binds |  |  |  |  |  | 
2 | Myc-Bax (from UniProt Q07812 1-192) |  | binds |  |  |  |  | 
3 | Myc-BtfS (pcDNA3-Myc-BtfS) (from UniProt Q9NYF8 1-920) |  | binds | binds | binds | binds | binds | binds
